Reference: PMC8024197
Results are given in words; binding and its absence hold for the method and conditions named. In cells and extracts the contact can be indirect. Some entries that bind do so weakly or less than the wild type.

By UniProt entry, the sequences of proteins in these tests, tags left out. Residues count along the entry.
UniProt Q99623: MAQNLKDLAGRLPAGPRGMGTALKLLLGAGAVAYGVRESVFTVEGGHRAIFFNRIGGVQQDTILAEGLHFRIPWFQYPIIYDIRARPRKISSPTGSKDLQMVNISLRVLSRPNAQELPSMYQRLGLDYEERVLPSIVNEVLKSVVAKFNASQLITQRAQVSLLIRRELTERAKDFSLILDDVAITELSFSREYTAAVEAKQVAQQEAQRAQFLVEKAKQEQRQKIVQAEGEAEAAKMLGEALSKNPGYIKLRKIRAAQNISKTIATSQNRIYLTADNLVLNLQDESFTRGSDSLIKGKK
UniProt P11912, residues 33-226: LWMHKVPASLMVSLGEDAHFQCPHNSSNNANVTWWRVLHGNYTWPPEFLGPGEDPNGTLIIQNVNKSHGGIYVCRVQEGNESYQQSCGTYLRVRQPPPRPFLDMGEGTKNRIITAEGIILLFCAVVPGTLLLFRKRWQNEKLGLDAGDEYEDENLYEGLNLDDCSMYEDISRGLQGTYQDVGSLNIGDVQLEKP

Legend:
[1] = biological target: prohibitin-2 (PHB2) (human (endogenous in MEC-1)) (UniProt Q99623); experiment: co-IP; IgM MEC-1 cells lysed in Buffer A; anti-PHB2 on Protein G dynabeads o/n at 4 °C; blot with anti-CD79a and anti-PHB2
[2] = biological target: prohibitin-2 (PHB2) (human (endogenous in MEC-1)) (UniProt Q99623); experiment: co-IP; IgG-switched MEC-1 cells lysed in Buffer A; anti-PHB2 on Protein G dynabeads o/n at 4 °C; blot with anti-CD79a and anti-PHB2

CD79a (from UniProt P11912 33-226) was tested. Which binding [1] did it give?
Its binding is “binds”.

And the binding [2]?
The binding was “binds weakly”.
